In patent publication US4721715A, “Derivatives of 4-(arylpiperazinyl-ethylaminoethoxy) phenol useful for effecting hypolipidemic therapy or cardiovascular therapy” (Societe Cortial, S.A., priority 1984, dated 1988):
Counter-ions that a name gives are not always drawn. At least one compound was matched to its structure with a doubt left.

What was measured:
[1] = test system: Alpha-1; assay: Alpha-1 blocking activity in vitro: antagonism of norepinephrine-induced contractions of isolated rabbit aorta strips; conditions: for interval between introduction of the test product and of the […] into the bath, which corresponds to the maximum activity: isolated rabbit aorta strips, norepinephrine 2.10^-6 mol/1; for IC50: norepinephrine 2.10^-6 mol/1, isolated rabbit aorta strips, at interval of maximum activity, read-out: IC50 (concentration inhibiting 50% of the contractions)
[2] = test system: climbing induced by apomorphine; assay: Neuroleptic activity: climbing test (apomorphine) in mice; assay type: in vivo; conditions: intraperitoneal, 30 minutes following the injection
Experimental: The neuroleptic activity of COR 2865 was determined in the climbing test. […] They were given 1.5 mg/kg apomorphine in order to induce a maximum climbing level.

[3] = test system: mice with hypercholesterolemia; assay: Hypolipidemic activity in mice with diet-induced hypercholesterolemia; assay type: in vivo; conditions: oral 100 mg/kg on the sixth and seventh day
Experimental: Hypolipidemic Activity: In mice with hypercholesterolemia produced by a diet high in cholesterol and cholic acid fed for seven days, administration of an oral dose of 100 mg/kg COR 2865 on the sixth and seventh day brought about a reduction in serum cholesterol of 31% and a reduction of HP-betalipoproteins of 38% as well as a decrease in the VLDL+LDL/cholesterol ratio.

SMILES	interval between introduction of the test product and of the […] into the bath, which corresponds to the maximum activity [1] [min]	IC50 [1] [nM]	agonistic effect (climbing behavior before apomorphine) [2]	VLDL+LDL/cholesterol ratio [3]
Cc1cc(OCCN2CCN(c3ccccc3)CC2)c(C(C)C)cc1O [COR 2837, 5-Isopropyl-2-methyl-4-phenylpiperazinylethoxyphenol hydrochloride]	30	1640	–	–
Cc1cc(OCCN2CCN(c3ccc(F)cc3)CC2)c(C(C)C)cc1O [COR 2841, 5-Isopropyl-2-methyl-4-(p-fluorophenylpiperazinylethoxy)phenol hydrochloride]	60	1160	–	–
CCOc1ccccc1N1CCN(CCOc2cc(C)c(O)cc2C(C)C)CC1 [COR 2865, 5-Isopropyl-2-methyl-4-((2-ethoxyphenyl)piperazinylethoxy) phenol hydrochloride]	–	–	did not exhibit any significant agonistic effect	decrease
Cc1cc(OCCN2CCN(c3ccccc3C)CC2)c(C(C)C)cc1O [COR 2843, 5-Isopropyl-2-methyl-4-(2-methylphenyl) piperazinylethoxy phenol hydrochloride]	60	982	–	–
